Laboratory results published in PubChem BioAssay (EPA / NIEHS).
Inconclusive results, whose numbers are uncertain, are shown with a selection of clear calls. Where the call is inconclusive, the potency comes from a doubtful curve fit. Active and inactive are the calls of the source. Rule for the calls: active = hit-call score of the fitted dose curve at least 0.9, where 1 is the maximum; inconclusive = response in the unintended direction; inactive = score below 0.9.

Assay: TOX21_PR_LUC_Followup_Antagonist_viability: Viability Assessment in the Tox21 HEK293 Progesterone Receptor (PR) Antagonism Luciferase Follow-Up Assay (AID 2283940)
Text: TOX21_PR_LUC_Followup is a secondary assay for specificity for the TOX21_PR_BLA_Agonist assay. To differentiate true PR agonists from cytotoxic substances, this follow up assay is multiplexed with a cell viability assay.TOX21_PR_LUC_Followup_Antagonist_viability is an assay readout measuring cellular ATP content and detected with CellTiter-Glo Luciferase-coupled ATP quantitation.TOX21_PR_LUC_Followup_Antagonist_viability used a type of viability reporter where loss-of-signal activity can be used to understand changes in the cell viability. Furthermore, this assay endpoint can be referred to as a secondary readout, because this assay has produced multiple assay endpoints where this one serves a viability function. To generalize the intended target to other relatable targets, this assay endpoint is annotated to the cell cycle intended target family, where the subfamily is cytotoxicity.
Quality Control Precautions: Maintain cells below 85-90% confluence in culture medium. For assay purpose, the cells should be cultured in assay medium with 10% charcoal stripped FBS for 5 days with alternate day medium changed to fresh medium. Especially while in assay culture, the cells should not reach more than 85% confluence as they would become harder to detach if they reach over confluence.Assay Protocol: HEK293-PR-A-luc cells were dispensed at 3,000 cells/5 uL/well of culture medium into white wall/solid-bottom 1536-well plates using a Multidrop Combi (ThermoFisher Scientific, Waltham, MA) dispenser. After the assay plates were incubated at 37C and […] for 5 h, 23 nL of compounds dissolved in DMSO, positive controls or DMSO only was transferred to the assay plate by a Pintool station (Kalypsys, San Diego, CA). The plates were incubated at 37C and […] for 16 h. Then 4 uL of ONE-Glo reagent (Promega, Madison, WI) was added to each plate using a BioRAPTR Flying Reagent Dispenser (FRD) workstation (Beckman Coulter, Indianapolis, IN, USA) and luminescence was quantified on a ViewLux (PerkinElmer, Shelton, CT) plate reader after 30 min incubation at room temperature.

For `CC(=O)[C@@]1(O)CC[C@H]2[C@@H]3CCC4=CC(=O)CC[C@]4(C)[C@H]3CC[C@@]21C`, which AC50 is on record?
Its AC50 is inconclusive: 10.3 µM.

With `C[C@H]1C[C@H]2[C@@H]3CCC4=CC(=O)C=C[C@]4(C)[C@@]3(F)[C@@H](O)C[C@]2(C)[C@@]1(O)C(=O)COP(=O)(O)O` as the molecule, how does the outcome read?
The outcome was “inactive”.

For `C#CC1(O)CC[C@H]2[C@@H]3CCC4=CCCC[C@@H]4[C@H]3CC[C@@]21C` (some centres not stated), which outcome is on record?
The outcome was “inactive”.

For `CC(=O)Oc1ccc2c(c1)CC[C@@H]1[C@@H]2CC[C@]2(C)[C@@H](O)CC[C@@H]12`, which AC50 is on record?
Its AC50 is inconclusive: 23 µM.

For `O=C(Oc1ccccc1)c1ccc(O)cc1`, which AC50 is on record?
Its AC50 is inconclusive: 46.1 µM.

Which AC50 does the source give for `O=[N+]([O-])c1ccc2c(c1)Cc1ccccc1-2` here?
Its AC50 is inconclusive: 46.1 µM.

Which outcome does the source give for `CN1CCN(C2=Nc3cc(F)ccc3Cc3ccccc32)CC1` here?
Its outcome is “inactive”.

Which AC50 does the source give for `CC(=O)OCC(=O)[C@@]1(OC(C)=O)[C@@H](C)C[C@H]2[C@@H]3C[C@H](F)C4=CC(=O)C=C[C@]4(C)[C@@]3(F)[C@@H](O)C[C@@]21C` here?
The AC50 was inconclusive: 23 µM.

Which outcome does the source give for `CC(COc1ccccc1)N(CCCl)Cc1ccccc1` (configuration not stated) here?
Its outcome is “inactive”.

For `CC(O)(c1ccc(Cl)cc1)c1ccc(Cl)cc1`, which AC50 is on record?
The AC50 was inconclusive: 46.1 µM.

Which outcome does the source give for `C[C@]12CCC(=O)C=C1[C@@H]1C[C@@H]1[C@H]1[C@@H]3[C@@H]4C[C@@H]4[C@@]4(CCC(=O)O4)[C@@]3(C)CC[C@@H]12` here?
Its outcome is “inactive”.

For `C[C@H]1C[C@@H]2[C@H]([C@@H](O)C[C@@]3(C)[C@H]2CC[C@]3(O)C(=O)CO)[C@@]2(C)C=CC(=O)C=C12`, which AC50 is on record?
Its AC50 is inconclusive: 46.1 µM.
